Data as given in PubChem BioAssay AID504764 (Drosophila RNAi Screening Center, 2011).

- Purpose: 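Knock-downs that raise or lower a Notch target reporter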 (primary screen)
- System: Drosophila Kc167 cells
- Reagent: long dsRNA against Drosophila genes
- Duration: about 5 days (4 days dsRNA, then 24 h after transfection)
- Challenge: transfection of constitutively active membrane-tethered Notch lacking the extracellular domain, read 24 h later
- Read-out: 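Light from a Notch-responsive E(spl)m3 luciferase reporter under active Notch, with control-promoter and no-Notch reporter wells to normalise; raw counts from paired wells a and b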
- Scale: induced reporter light, run 1, well a and induced reporter light, run 1, well b: higher = more light from the Notch target reporter with active Notch; control promoter light, run 1, well a and control promoter light, run 1, well b: higher = more light from the viral control promoter (cell number, transfection, viability); uninduced reporter light, run 1, well a: higher = more light from the Notch target reporter without active Notch
- Call rule: 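Wells with low control signal or poorly matching duplicates excluded; duplicates averaged; per source plate, z beyond ±2 for induced/control log2 ratio or beyond ±1.8 for induced/uninduced marks a hit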
- Meaning of the calls: active = modifier hit (raised or lowered Notch signal); inactive = not a hit
In all, the deposit lists about 22,000 reagents; this is a random part of those with a known target gene and a result. Over the whole deposit, 403 (1.9%) got an active call. 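Unnormalised raw counts per well; ratio z-scores behind the hit calls and whether each hit raises or lowers signal are not deposited.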 Names joined by + are all predicted targets of the reagent. Not stated in the record: the amount of reagent.

predicted target,dsRNA,"induced reporter light, run 1, well a","induced reporter light, run 1, well b","control promoter light, run 1, well a","control promoter light, run 1, well b","uninduced reporter light, run 1, well a",activity call
CG3222,DRSC10355,1.59e5,1.04e5,1.72e5,1.56e5,6990,inactive
CG13231,DRSC06351,85755,1.23e5,1.50e5,1.54e5,11700,inactive
Cad99C (Cadherin 99C),DRSC15050,1.78e5,1.32e5,2.60e5,2.18e5,13510,inactive
Cad99C (Cadherin 99C),DRSC16317,1.62e5,2.00e5,2.14e5,2.24e5,13555,inactive
CG1640,DRSC19750,1.60e5,1.96e5,2.15e5,2.23e5,12920,inactive
Rsph1 (Radial spoke head protein 1),DRSC02864,1.71e5,1.75e5,1.82e5,1.86e5,18205,inactive
cl (clot),DRSC02118,1.58e5,1.64e5,1.66e5,1.75e5,15732,inactive
CG13473,DRSC10017,1.00e5,1.06e5,67565,71700,8600,inactive
Cph (Chronophage),DRSC17507,66400,72070,65875,68445,5375,inactive
Cph (Chronophage),DRSC18434,79525,82340,1.43e5,1.23e5,7750,inactive
dtr (defective transmitter release),DRSC01847,84895,1.17e5,77215,86325,9865,inactive
mRpL19 (mitochondrial ribosomal protein L19),DRSC16367,65455,54935,58750,55875,4870,inactive
IA-2 (IA-2 protein tyrosine phosphatase),DRSC00304,1.70e5,1.89e5,1.88e5,1.69e5,15905,inactive
IA-2 (IA-2 protein tyrosine phosphatase),DRSC00652,1.71e5,1.60e5,1.67e5,1.62e5,12810,inactive
GstE1 (Glutathione S transferase E1),DRSC07437,65065,72100,89575,76195,6195,inactive
CG5937,DRSC18392,1.11e5,1.09e5,1.42e5,1.49e5,6090,inactive
CG5676,DRSC02875,1.01e5,1.14e5,62110,82465,13680,inactive
Lcp1 (Larval cuticle protein 1),DRSC07455,1.71e5,1.40e5,1.74e5,1.59e5,12210,inactive
Or67b (Odorant receptor 67b),DRSC11241,1.17e5,1.07e5,1.53e5,1.59e5,6665,inactive
Dim1,DRSC00563,71560,68140,65420,47605,3015,inactive
CG8298,DRSC07138,95205,1.10e5,1.31e5,1.19e5,8830,inactive
scb (scab),DRSC05542,1.71e5,1.80e5,3.14e5,3.11e5,17745,inactive
scb (scab),DRSC07678,1.01e5,93560,1.46e5,1.17e5,9615,inactive
"E(spl)m6-BFM (Enhancer of split m6, Bearded family member)",DRSC16993,1.65e5,1.91e5,2.37e5,2.03e5,13895,inactive
CG8665,DRSC03098,22690,41470,44610,43980,2410,inactive
FRG1 (FSHD region gene 1),DRSC10648,1.58e5,1.14e5,1.14e5,1.05e5,5715,inactive
CG31730,DRSC01308,97875,1.20e5,1.71e5,1.37e5,6820,inactive
kni (knirps),DRSC11891,83610,54200,50500,52005,5642,inactive
Tret1-1 (Trehalose transporter 1-1),DRSC07046,1.05e5,1.12e5,1.42e5,1.40e5,11828,inactive
Tret1-1 (Trehalose transporter 1-1),DRSC07048,1.09e5,1.14e5,1.66e5,1.55e5,10625,inactive
CG7953,DRSC01902,2.00e5,2.24e5,2.07e5,2.07e5,16485,inactive
SCAP (SREBP cleavage activating protein),DRSC04869,1.60e5,1.47e5,1.76e5,1.74e5,10090,inactive
SCAP (SREBP cleavage activating protein),DRSC04907,1.86e5,2.14e5,1.74e5,1.66e5,13315,inactive
CG15841 (retired record) + Acp33A,DRSC01859,1.17e5,1.26e5,74380,99455,16800,inactive
Tsp42Ec (Tetraspanin 42Ec),DRSC06192,1.75e5,2.10e5,2.42e5,2.13e5,16240,inactive
Tps1 (Trehalose-6-phosphate synthase 1),DRSC00269,2.00e5,2.22e5,1.76e5,1.74e5,18080,inactive
mir-210 (retired record),DRSC19230,99675,1.01e5,99725,83005,7780,inactive
Atg5 (Autophagy-related 5),DRSC18112,2.20e5,1.78e5,2.60e5,2.07e5,13950,inactive
CheA87a (Chemosensory protein A 87a),DRSC14839,2.31e5,2.35e5,2.17e5,1.80e5,18655,inactive
CG10344,DRSC04066,2.22e5,1.96e5,1.36e5,1.51e5,13610,active
CG3301,DRSC15471,235,125,265,235,50,inactive
CG3999,DRSC15534,69050,86325,91355,62380,5080,inactive
Tim10 + CG42497,DRSC04664,1.56e5,1.46e5,1.29e5,1.31e5,10760,inactive
Arp10 (Actin-related protein 10),DRSC19448,1.03e5,1.24e5,96590,54680,8265,inactive
CCHa2-R (CCHamide-2 receptor),DRSC04825,89295,96920,1.14e5,1.27e5,5210,inactive
CCHa2-R (CCHamide-2 receptor),DRSC04870,1.45e5,1.38e5,1.16e5,1.13e5,7330,active
CCHa2-R (CCHamide-2 receptor),DRSC04871,1.62e5,1.46e5,1.55e5,1.51e5,11180,inactive
ref(2)P (refractory to sigma P),DRSC03601,15220,15725,19210,12900,1085,inactive
CG13423,DRSC06386,1.49e5,1.38e5,1.28e5,1.25e5,7610,inactive
Dbp45A (DEAD box protein 45A),DRSC07395,1.16e5,1.52e5,1.42e5,1.24e5,12642,inactive
CG15196,DRSC19643,1.10e5,98015,1.54e5,1.51e5,7630,inactive
Taf2 (TBP-associated factor 2),DRSC11298,95510,72760,55670,33715,7050,inactive
CG31091,DRSC15933,1.52e5,1.64e5,1.96e5,1.96e5,13588,inactive
CG16820,DRSC02522,1.76e5,2.22e5,1.51e5,1.50e5,14440,inactive
CG1344,DRSC04837,1.13e5,1.49e5,91365,1.02e5,7670,inactive
CG3764,DRSC10375,1.44e5,1.31e5,92315,98155,11000,inactive
Arp8 (Actin-related protein 8),DRSC20059,1.87e5,1.33e5,1.03e5,79120,9110,inactive
sordd2 + sordd1,DRSC20136,1.66e5,1.62e5,2.02e5,2.08e5,11015,inactive
CG30156,DRSC04959,68270,92235,1.19e5,1.43e5,4590,inactive
CG4701,DRSC01952,98310,1.14e5,1.23e5,1.15e5,9650,inactive
PGS1 (Phosphatidylglycerophosphate synthase 1),DRSC16304,1.85e5,1.82e5,1.74e5,1.80e5,14950,inactive
Nepl17 (Neprilysin-like 17),DRSC14880,1.34e5,91690,1.79e5,1.64e5,9560,inactive
aqrs (aquarius),DRSC14724,1.02e5,97955,1.69e5,1.38e5,9615,inactive
CG14932,DRSC02414,1.25e5,1.62e5,78465,1.03e5,18670,inactive

Active calls, among the entries above:
predicted target,dsRNA,"induced reporter light, run 1, well a","induced reporter light, run 1, well b","control promoter light, run 1, well a","control promoter light, run 1, well b","uninduced reporter light, run 1, well a",activity call
CG10344,DRSC04066,2.22e5,1.96e5,1.36e5,1.51e5,13610,active
CCHa2-R (CCHamide-2 receptor),DRSC04870,1.45e5,1.38e5,1.16e5,1.13e5,7330,active
